Results are given in words; binding and its absence hold for the method and conditions named. In cells and extracts the contact can be indirect. Some entries that bind do so weakly or less than the wild type. Tags and fused reporters may be left off the sequences shown.
T1: FLAG-tagged full-length OTUD4 (ovarian tumor family deubiquitinase 4), WT (human) (UniProt Q01804)
T1 sequence: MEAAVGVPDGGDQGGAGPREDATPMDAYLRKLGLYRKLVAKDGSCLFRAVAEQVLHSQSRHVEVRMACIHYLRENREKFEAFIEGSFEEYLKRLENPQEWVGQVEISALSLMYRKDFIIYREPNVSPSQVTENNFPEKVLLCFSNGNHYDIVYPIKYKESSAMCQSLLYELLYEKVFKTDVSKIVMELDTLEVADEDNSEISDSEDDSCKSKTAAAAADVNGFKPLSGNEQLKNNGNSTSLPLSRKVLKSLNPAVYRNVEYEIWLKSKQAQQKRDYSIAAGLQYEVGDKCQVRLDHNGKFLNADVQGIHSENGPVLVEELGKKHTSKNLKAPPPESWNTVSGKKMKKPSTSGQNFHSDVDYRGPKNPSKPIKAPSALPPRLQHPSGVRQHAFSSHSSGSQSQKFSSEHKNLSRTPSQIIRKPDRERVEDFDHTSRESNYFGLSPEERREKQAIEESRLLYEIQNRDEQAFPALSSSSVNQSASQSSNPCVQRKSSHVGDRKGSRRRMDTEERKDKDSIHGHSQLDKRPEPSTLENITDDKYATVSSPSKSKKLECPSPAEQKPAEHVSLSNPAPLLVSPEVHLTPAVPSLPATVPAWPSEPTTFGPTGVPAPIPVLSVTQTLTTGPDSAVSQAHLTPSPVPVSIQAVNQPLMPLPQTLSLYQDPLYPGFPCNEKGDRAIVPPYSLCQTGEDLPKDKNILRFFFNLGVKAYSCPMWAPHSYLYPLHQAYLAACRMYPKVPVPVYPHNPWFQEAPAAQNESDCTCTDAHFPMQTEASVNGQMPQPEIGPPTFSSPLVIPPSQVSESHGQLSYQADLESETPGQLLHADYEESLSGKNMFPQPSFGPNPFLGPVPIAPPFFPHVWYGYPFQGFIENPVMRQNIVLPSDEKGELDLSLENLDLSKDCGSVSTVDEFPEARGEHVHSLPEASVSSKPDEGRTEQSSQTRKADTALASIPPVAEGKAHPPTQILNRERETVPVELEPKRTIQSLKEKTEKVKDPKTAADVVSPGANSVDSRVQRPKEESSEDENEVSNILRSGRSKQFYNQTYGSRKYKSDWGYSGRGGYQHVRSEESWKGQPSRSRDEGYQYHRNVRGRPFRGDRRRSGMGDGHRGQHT

T2: FLAG-tagged full-length OTUD4 H148Y (tumor-associated variant) (human) (UniProt Q01804)
T2 sequence: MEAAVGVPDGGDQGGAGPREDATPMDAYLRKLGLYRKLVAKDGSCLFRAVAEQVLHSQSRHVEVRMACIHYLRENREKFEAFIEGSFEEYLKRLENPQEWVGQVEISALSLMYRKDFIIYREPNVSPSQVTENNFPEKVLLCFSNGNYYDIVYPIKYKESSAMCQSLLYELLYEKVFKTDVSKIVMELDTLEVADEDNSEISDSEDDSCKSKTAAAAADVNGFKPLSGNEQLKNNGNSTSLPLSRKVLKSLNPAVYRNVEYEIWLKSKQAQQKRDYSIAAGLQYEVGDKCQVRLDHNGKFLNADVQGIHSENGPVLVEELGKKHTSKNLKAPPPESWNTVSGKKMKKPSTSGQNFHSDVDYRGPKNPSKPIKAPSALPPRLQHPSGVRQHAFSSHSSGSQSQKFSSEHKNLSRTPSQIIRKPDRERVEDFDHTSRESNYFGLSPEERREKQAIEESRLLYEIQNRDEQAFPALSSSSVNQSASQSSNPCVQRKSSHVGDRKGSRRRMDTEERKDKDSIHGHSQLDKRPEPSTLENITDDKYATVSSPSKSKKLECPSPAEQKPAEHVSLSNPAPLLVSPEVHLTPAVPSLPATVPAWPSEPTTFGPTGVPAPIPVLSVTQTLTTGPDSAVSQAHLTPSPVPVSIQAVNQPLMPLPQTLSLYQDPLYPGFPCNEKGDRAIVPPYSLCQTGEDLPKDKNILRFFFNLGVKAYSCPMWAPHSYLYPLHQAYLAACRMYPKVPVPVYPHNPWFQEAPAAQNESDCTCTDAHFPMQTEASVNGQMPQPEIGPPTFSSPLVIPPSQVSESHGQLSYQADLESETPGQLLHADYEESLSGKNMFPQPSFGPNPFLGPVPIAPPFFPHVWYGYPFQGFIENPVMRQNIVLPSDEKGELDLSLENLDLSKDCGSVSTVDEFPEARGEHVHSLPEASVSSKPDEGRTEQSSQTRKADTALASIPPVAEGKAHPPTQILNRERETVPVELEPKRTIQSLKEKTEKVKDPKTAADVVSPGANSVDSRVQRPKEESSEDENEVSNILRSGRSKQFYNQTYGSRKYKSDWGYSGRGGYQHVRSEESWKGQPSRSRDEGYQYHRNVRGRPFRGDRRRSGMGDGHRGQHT

T3: HA-TAK1 (UniProt O43318)
T3 sequence: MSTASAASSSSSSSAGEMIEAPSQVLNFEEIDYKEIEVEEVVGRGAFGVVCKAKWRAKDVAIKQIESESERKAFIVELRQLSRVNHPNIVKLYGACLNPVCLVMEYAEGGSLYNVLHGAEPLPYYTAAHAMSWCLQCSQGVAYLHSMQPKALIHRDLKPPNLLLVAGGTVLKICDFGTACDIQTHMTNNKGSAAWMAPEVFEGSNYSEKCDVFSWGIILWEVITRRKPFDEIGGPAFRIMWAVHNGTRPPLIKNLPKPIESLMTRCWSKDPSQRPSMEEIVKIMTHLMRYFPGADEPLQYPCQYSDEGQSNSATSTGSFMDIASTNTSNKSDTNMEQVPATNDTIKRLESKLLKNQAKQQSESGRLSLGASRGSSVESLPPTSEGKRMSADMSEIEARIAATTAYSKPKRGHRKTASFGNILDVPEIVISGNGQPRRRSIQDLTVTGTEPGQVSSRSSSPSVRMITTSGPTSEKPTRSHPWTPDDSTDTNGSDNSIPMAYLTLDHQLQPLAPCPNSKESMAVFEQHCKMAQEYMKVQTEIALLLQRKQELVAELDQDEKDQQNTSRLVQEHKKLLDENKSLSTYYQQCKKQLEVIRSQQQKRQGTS


Experiments:
Experiment in all cases: co-IP; HEK293T cells transfected with the indicated plasmids, 48 to 72 h; clarified lysates incubated overnight at 4 °C with anti-FLAG M2-agarose or anti-HA-agarose beads; Western blot
[1] = target: T1, FLAG-tagged full-length OTUD4 (ovarian tumor family deubiquitinase 4), WT (human)
[2] = target: T2, FLAG-tagged full-length OTUD4 H148Y (tumor-associated variant) (human)
[3] = target: T3, HA-TAK1

binding [1] | binding [2] | binding [3] | Binder
binds | binds | binds | endogenous TAB1 in HEK293T cells (protein, UniProt Q15750 1-504) MAAQRRSLLQSEQQPSWTDDLPLCHLSGVGSASNRSYSADGKGTESHPPEDSWLKFRSENNCFLYGVFNGYDGNRVTNFVAQRLSAELLLGQLNAEHAEADVRRVLLQAFDVVERSFLESIDDALAEKASLQSQLPEGVPQHQLPPQYQKILERLKTLEREISGGAMAVVAVLLNNKLYVANVGTNRALLCKSTVDGLQVTQLNVDHTTENEDELFRLSQLGLDAGKIKQVGIICGQESTRRIGDYKVKYGYTDIDLLSAAKSKPIIAEPEIHGAQPLDGVTGFLVLMSEGLYKALEAAHGPGQANQEIAAMIDTEFAKQTSLDAVAQAVVDRVKRIHSDTFASGGERARFCPRHEDMTLLVRNFGYPLGEMSQPTPSPAPAAGGRVYPVSVPYSSAQSTSKTSVTLSLVMPSQGQMVNGAHSASTLDEATPTLTNQSPTLTLQSTNTHTQSSSSSSDGGLFRSRPAHSLPPGEDGRVEPYVDFAEFYRLWSVDHGEQSVVTAP
binds | binds | binds | endogenous TAB3 in HEK293T cells (protein, UniProt Q8N5C8 1-712) MAQSSPQLDIQVLHDLRQRFPEIPEGVVSQCMLQNNNNLEACCRALSQESSKYLYMEYHSPDDNRMNRNRLLHINLGIHSPSSYHPGDGAQLNGGRTLVHSSSDGHIDPQHAAGKQLICLVQEPHSAPAVVAATPNYNPFFMNEQNRSAATPPSQPPQQPSSMQTGMNPSAMQGPSPPPPPPSYMHIPRYSTNPITVTVSQNLPSGQTVPRALQILPQIPSNLYGSPGSIYIRQTSQSSSGRQTPQSTPWQSSPQGPVPHYSQRPLPVYPHQQNYQPSQYSPKQQQIPQSAYHSPPPSQCPSPFSSPQHQVQPSQLGHIFMPPSPSTTPPHPYQQGPPSYQKQGSHSVAYLPYTASSLSKGSMKKIEITVEPSQRPGTAINRSPSPISNQPSPRNQHSLYTATTPPSSSPSRGISSQPKPPFSVNPVYITYTQPTGPSCTPSPSPRVIPNPTTVFKITVGRATTENLLNLVDQEERSAAPEPIQPISVIPGSGGEKGSHKYQRSSSSGSDDYAYTQALLLHQRARMERLAKQLKLEKEELERLKSEVNGMEHDLMQRRLRRVSCTTAIPTPEEMTRLRSMNRQLQINVDCTLKEVDLLQSRGNFDPKAMNNFYDNIEPGPVVPPKPSKKDSSDPCTIERKARRISVTSKVQADIHDTQAAAADEHRTGSTQSPRTQPRDEDYEGAPWNCDSCTFLNHPALNRCEQCEMPRYT

From publication PMC12607013
